The list is a part of this screen's results and no random one: it is rich in T/C values a quarter to a half above the control, in often repeated tests (any T/C) and in doses without a T/C. Other doses and runs of a compound stand elsewhere. T/C: endpoint of the treated group in % of that of the vehicle group. Some entries give survivors of the animals treated and no T/C: the source files T/C as zero there, which appears to mark a toxic dose or a test without result, not a measured value. Some doses without a T/C left all or most animals alive at the check, yet need not have been tolerated: the source hardly ever lists a survival T/C far under the control, and the zero likely stands for such cases as well. Survivors were counted at the toxicity check, usually on the fifth day, unless a day is given; later deaths do not show. Schedule codes are those of the source, read here as Q, the interval in days (D) or hours (H), X, the number of doses. Some schedules carry Z or #; the key to these is not given. For survival time, the PubChem record calls one and a half times the control and up active, and a quarter to a half above the control has no call in these data; cut-offs in other NCI protocols can differ.
Tested on: L1210 leukemia ip in BDF1 mice, survival T/C
Experiment: NCI In Vivo Anticancer Drug Screen. Data for tumor model L1210 Leukemia (intraperitoneal) in B6D2F1 (BDF1) mice
Settings: T/C endpoint: mean survival time, higher T/C = longer survival
[1] = dose: 50.0 mg/kg/injection, schedule: Q01DX009 (ip), vehicle: Klucel (hydroxypropylcellulose) (HPC)
[2] = dose: 100.0 mg/kg/injection, schedule: Q04DX003 (ip), vehicle: Klucel (hydroxypropylcellulose) (HPC)
[3] = dose: 200.0 mg/kg/injection, schedule: Q04DX003 (ip), vehicle: Klucel (hydroxypropylcellulose) (HPC)
[4] = dose: 400.0 mg/kg/injection, schedule: Q04DX003 (ip), vehicle: Klucel (hydroxypropylcellulose) (HPC)
[5] = dose: 400.0 mg/kg/injection, schedule: Q04DX003 (ip), vehicle: saline with Tween-80
[6] = dose: 100.0 mg/kg/injection, schedule: Q04DX003 (ip), vehicle: saline with Tween-80
[7] = dose: 200.0 mg/kg/injection, schedule: Q04DX003 (ip), vehicle: saline with Tween-80
[8] = dose: 100.0 mg/kg/injection, schedule: Q04DX003 (ip), vehicle: saline
[9] = dose: 200.0 mg/kg/injection, schedule: Q04DX003 (ip), vehicle: saline
[10] = dose: 400.0 mg/kg/injection, schedule: Q04DX003 (ip), vehicle: saline
[11] = dose: 400.0 mg/kg/injection, schedule: Q04DX002 (ip), vehicle: saline

CN(C)C=NC1CCC(C(C)(C)C)CC1 (stereo not drawn)
survivor count [1]: 3 of 6 | survivor count [2]: 0 of 6 | survivor count [3]: 0 of 6 | survivor count [4]: 0 of 6

COC(=O)c1cc(N2CC2)nc(SC)n1
survivor count (dose: 25.0 mg/kg/injection, schedule: Q01DX Z (ip), vehicle: methylcellulose (MC)): 0 of 6 | survivor count (dose: 50.0 mg/kg/injection, schedule: Q01DX Z (ip), vehicle: methylcellulose (MC)): 0 of 6 | survivor count (dose: 100.0 mg/kg/injection, schedule: Q01DX Z (ip), vehicle: methylcellulose (MC)): 0 of 6 | survivor count (dose: 200.0 mg/kg/injection, schedule: Q01DX Z (ip), vehicle: methylcellulose (MC)): 0 of 6

Oc1ccc(-c2ccccc2)cc1Br
survivor count [5]: 3 of 6

Cc1ccc2ccc(/C=N/Nc3ccc4cccc(O)c4n3)c(O)c2n1
survivor count (dose: 200.0 mg/kg/injection, schedule: Q01DX001 (ip), vehicle: carboxymethylcellulose (CMC)): 3 of 4

c1ccc2[nH]c(CN3CCCCC3)cc2c1
survivor count [6]: 3 of 6 | survivor count [7]: 0 of 6 | survivor count [5]: 0 of 6

Cc1cc(S(=O)(=O)F)ccc1NC(=O)NCc1ccc([N+](=O)[O-])cc1
survivor count (dose: 400.0 mg/kg/injection, schedule: Q01DX009 (ip), vehicle: Klucel (hydroxypropylcellulose) (HPC)): 2 of 6

C[N+](C)(C)/N=C1\CCc2ccccc21
survivor count (dose: 400.0 mg/kg/injection, schedule: Q01DX001 (ip), vehicle: saline with Tween-80): 1 of 6

O=[N+]([O-])c1cc(F)c(F)cc1F
survivor count [4]: 0 of 6

CNC(CNC(CO)CC(C)C)Cc1ccc(OCc2ccccc2)cc1 (stereo not drawn)
survivor count (dose: 100.0 mg/kg/injection, schedule: Q01DX009 (ip), vehicle: saline): 4 of 6 | survivor count [8]: 1 of 6 | survivor count [9]: 1 of 6 | survivor count [10]: 0 of 6

N#CCCc1ccc(O)cc1
survivor count (dose: 400.0 mg/kg/injection, schedule: Q04DX003 (ip), vehicle: gum acacia): 1 of 6

N#CSc1nc2ccccc2s1
survivor count (dose: 50.0 mg/kg/injection, schedule: Q01DX001 (ip), vehicle: saline): 1 of 6 | survivor count (dose: 100.0 mg/kg/injection, schedule: Q01DX001 (ip), vehicle: saline): 0 of 6 | survivor count (dose: 200.0 mg/kg/injection, schedule: Q01DX001 (ip), vehicle: saline): 0 of 6 | survivor count (dose: 400.0 mg/kg/injection, schedule: Q01DX001 (ip), vehicle: saline): 0 of 6

CCC(=O)CC1CCCC(CC(=O)CC)N1 (stereo not drawn)
survivor count (dose: 300.0 mg/kg/injection, schedule: Q01DX001 (ip), vehicle: saline): 0 of 6

NC(CCl)=NCCC1=NCCN1
survivor count [11]: 0 of 3

CN(C)C(=O)c1cccc(COc2ccc(N)cc2Cl)c1
survivor count [10]: 4 of 6

CC(C)(C)Sc1nc2ccccc2s1
T/C (dose: 100.0 mg/kg/injection, schedule: Q04DX002 (ip), vehicle: saline with Tween-80): 139 % of control

N=C(N)c1ccc(-c2[nH]c3cc(C(=N)N)ccc3c2-c2ccccc2)cc1
survivor count [6]: 2 of 4 | survivor count [7]: 0 of 4 | survivor count [5]: 0 of 4

Nc1nc(=S)c2[nH]c(N=Nc3ccc(S(=O)(=O)O)cc3)nc2[nH]1
T/C (dose: 25.0 mg/kg/injection, schedule: Q04DX003 (ip), vehicle: Klucel (hydroxypropylcellulose) (HPC)): 140 % of control | T/C [2]: 132 % of control | survivor count [3]: 3 of 6 | survivor count [4]: 1 of 6

CCN(CCNS(C)(=O)=O)c1ccc(N)c(C)c1
survivor count (dose: 25.0 mg/kg/injection, schedule: Q01DX009 (ip), vehicle: saline): 5 of 6 | survivor count (dose: 50.0 mg/kg/injection, schedule: Q01DX009 (ip), vehicle: saline): 0 of 6 | survivor count [8]: 0 of 6 | survivor count [9]: 0 of 6 | survivor count [10]: 0 of 6

CCOC(OCC)/C(C)=N\NC(N)=S
survivor count (dose: 960.0 mg/kg/injection, schedule: Q01DX Z (oral), vehicle: carboxymethylcellulose (CMC)): 4 of 6

Cc1ncc(CO)c(C2NOCc3ccc(Cl)cc32)c1O (stereo not drawn)
survivor count (dose: 200.0 mg/kg/injection, schedule: Q04DX003 (ip), vehicle: acetone): 5 of 6 | survivor count (dose: 400.0 mg/kg/injection, schedule: Q04DX003 (ip), vehicle: acetone): 0 of 6

COC(=O)c1cc([N+](=O)[O-])cc([N+](=O)[O-])c1Br
survivor count [1]: 4 of 6 | survivor count [2]: 0 of 6 | survivor count [3]: 0 of 6 | survivor count [4]: 0 of 6

C1=CCC2CSCC2C1 (stereo not drawn)
survivor count (dose: 300.0 mg/kg/injection, schedule: Q01DX009 (ip), vehicle: saline sonified): 0 of 6

C[P+]1(CCc2ccc(Cl)cc2)CC=CC1
survivor count [9]: 1 of 6 | survivor count [10]: 1 of 6

CCNc1nnc(N=Nc2ccccc2)s1
survivor count (dose: 50.0 mg/kg/injection, schedule: Q01DX009 (ip), vehicle: saline with Tween-80): 6 of 6 | survivor count (dose: 100.0 mg/kg/injection, schedule: Q01DX009 (ip), vehicle: saline with Tween-80): 6 of 6 | survivor count (dose: 200.0 mg/kg/injection, schedule: Q01DX009 (ip), vehicle: saline with Tween-80): 6 of 6

C=CCNC(=O)N(CC)C(=NCC)c1ccc(NC(=O)c2ccc(C(=O)Nc3ccc(C(=NCC)N(CC)C(=O)NCC=C)cc3)cc2)cc1
T/C (dose: 7.75 mg/kg/injection, schedule: Q01DX015 (ip), vehicle: methylcellulose (MC)): 132 % of control | survivor count (dose: 15.5 mg/kg/injection, schedule: Q01DX015 (ip), vehicle: methylcellulose (MC)): 0 of 6 | survivor count (dose: 31.0 mg/kg/injection, schedule: Q01DX015 (ip), vehicle: methylcellulose (MC)): 0 of 6 | survivor count (dose: 62.0 mg/kg/injection, schedule: Q01DX015 (ip), vehicle: methylcellulose (MC)): 0 of 6 | survivor count (dose: 125.0 mg/kg/injection, schedule: Q01DX015 (ip), vehicle: methylcellulose (MC)): 0 of 6 | survivor count (dose: 250.0 mg/kg/injection, schedule: Q01DX015 (ip), vehicle: methylcellulose (MC)): 0 of 6 | survivor count (dose: 500.0 mg/kg/injection, schedule: Q01DX015 (ip), vehicle: methylcellulose (MC)): 0 of 6

CN(C)C(SCc1c(Cl)c(Cl)c(Cl)c(Cl)c1Cl)=[N+](C)C
survivor count (dose: 25.0 mg/kg/injection, schedule: Q04DX002 (ip), vehicle: saline): 3 of 3 | survivor count (dose: 50.0 mg/kg/injection, schedule: Q04DX002 (ip), vehicle: saline): 2 of 3 | survivor count (dose: 100.0 mg/kg/injection, schedule: Q04DX002 (ip), vehicle: saline): 0 of 3 | survivor count (dose: 200.0 mg/kg/injection, schedule: Q04DX002 (ip), vehicle: saline): 1 of 3 | survivor count [11]: 0 of 3

CC1(O)CC(=O)C2C3C=CC(C3)C21 (stereo not drawn)
survivor count (dose: 300.0 mg/kg/injection, schedule: Q01DX001 (ip), vehicle: other): 1 of 6

COc1ccc(C[n+]2cccc(CNC(=O)COc3ccc(Cl)c(Cl)c3)c2)cc1
survivor count [3]: 3 of 6 | survivor count [4]: 1 of 6

CC[As](=O)(O)CCCc1ccccc1
survivor count (dose: 50.0 mg/kg/injection, schedule: Q01DX001 (ip), vehicle: Klucel (hydroxypropylcellulose) (HPC)): 0 of 3 | survivor count (dose: 100.0 mg/kg/injection, schedule: Q01DX001 (ip), vehicle: Klucel (hydroxypropylcellulose) (HPC)): 0 of 3 | survivor count (dose: 200.0 mg/kg/injection, schedule: Q01DX001 (ip), vehicle: Klucel (hydroxypropylcellulose) (HPC)): 0 of 3 | survivor count (dose: 400.0 mg/kg/injection, schedule: Q01DX001 (ip), vehicle: Klucel (hydroxypropylcellulose) (HPC)): 0 of 3
